Patent US20120276102A1
Substitutions are numbered along the chain they refer to. No constants are given. Whether binding was seen depends on the method and setting. Some binding calls cover weakened binding; strength is not graded here.

By UniProt entry, the sequences of proteins in these tests, tags left out. Where a name states a change or a piece, a line headed by the entry shows the natural chain unless it says otherwise. Chains listed by the source or under a name are the forms on record and can include a tag or linker.
cynomolgus monkey IL-21R expressed on cells (G7Q0S8, form named): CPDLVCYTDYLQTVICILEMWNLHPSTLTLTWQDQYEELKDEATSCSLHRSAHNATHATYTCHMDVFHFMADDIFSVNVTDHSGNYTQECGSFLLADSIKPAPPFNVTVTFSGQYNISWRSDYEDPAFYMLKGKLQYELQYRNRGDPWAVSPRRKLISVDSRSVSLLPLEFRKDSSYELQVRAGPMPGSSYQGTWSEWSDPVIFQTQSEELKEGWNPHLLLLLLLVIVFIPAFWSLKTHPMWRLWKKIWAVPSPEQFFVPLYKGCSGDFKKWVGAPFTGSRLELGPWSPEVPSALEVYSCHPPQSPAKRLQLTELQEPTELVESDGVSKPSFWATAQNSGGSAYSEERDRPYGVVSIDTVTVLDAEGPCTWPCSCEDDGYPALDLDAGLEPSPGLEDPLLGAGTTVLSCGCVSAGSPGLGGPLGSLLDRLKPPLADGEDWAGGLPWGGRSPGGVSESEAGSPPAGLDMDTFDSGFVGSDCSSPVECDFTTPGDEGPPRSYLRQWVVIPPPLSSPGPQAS
UniProt Q9HBE5: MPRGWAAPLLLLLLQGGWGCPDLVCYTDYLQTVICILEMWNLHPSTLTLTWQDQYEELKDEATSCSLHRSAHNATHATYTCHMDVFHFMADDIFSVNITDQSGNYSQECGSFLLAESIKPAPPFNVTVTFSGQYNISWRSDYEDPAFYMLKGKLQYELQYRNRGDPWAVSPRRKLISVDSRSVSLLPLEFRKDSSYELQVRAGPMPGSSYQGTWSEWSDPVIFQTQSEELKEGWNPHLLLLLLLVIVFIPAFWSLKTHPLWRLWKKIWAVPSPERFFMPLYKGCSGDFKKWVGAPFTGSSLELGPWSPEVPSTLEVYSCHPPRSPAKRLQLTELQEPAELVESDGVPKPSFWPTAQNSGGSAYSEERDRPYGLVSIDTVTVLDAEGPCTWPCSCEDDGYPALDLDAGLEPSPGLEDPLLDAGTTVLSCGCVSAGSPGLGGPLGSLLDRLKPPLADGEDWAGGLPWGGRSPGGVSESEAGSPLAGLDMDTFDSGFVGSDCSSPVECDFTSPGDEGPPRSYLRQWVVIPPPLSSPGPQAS
UniProt Q9JHX3: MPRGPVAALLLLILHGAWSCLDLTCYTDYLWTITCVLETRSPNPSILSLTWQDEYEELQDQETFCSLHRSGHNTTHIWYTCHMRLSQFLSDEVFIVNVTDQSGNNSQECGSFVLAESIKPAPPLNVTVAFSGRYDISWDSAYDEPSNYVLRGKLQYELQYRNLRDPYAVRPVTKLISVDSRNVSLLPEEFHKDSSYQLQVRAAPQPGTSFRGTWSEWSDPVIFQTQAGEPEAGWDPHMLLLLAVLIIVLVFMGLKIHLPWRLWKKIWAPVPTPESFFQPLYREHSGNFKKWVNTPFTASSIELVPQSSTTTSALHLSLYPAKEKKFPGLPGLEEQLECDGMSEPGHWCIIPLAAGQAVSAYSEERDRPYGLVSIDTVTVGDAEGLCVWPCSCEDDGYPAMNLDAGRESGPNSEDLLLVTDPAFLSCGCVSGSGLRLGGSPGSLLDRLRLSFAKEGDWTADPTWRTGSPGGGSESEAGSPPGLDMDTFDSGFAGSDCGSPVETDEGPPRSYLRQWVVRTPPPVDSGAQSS

Key:
[1] = biological target: cynomolgus monkey IL-21R expressed on cells (cynomolgus monkey) (UniProt G7Q0S8); experiment: cell-based ELISA on CHO cells transiently expressing cynomolgus monkey IL-21R; HRP anti-human IgG, A450
[2] = biological target: human IL-21R expressed on cells (human) (UniProt Q9HBE5); experiment: cell ELISA, CHO cells
[3] = biological target: cynomolgus monkey IL-21R expressed on cells (cynomolgus monkey) (UniProt G7Q0S8); experiment: cell ELISA, CHO cells
[4] = biological target: human IL-21R expressed on cells (human) (UniProt Q9HBE5); experiment: cell-based ELISA on CHO cells transiently expressing human IL-21R; HRP anti-human IgG, A450
[5] = biological target: murine IL-21R extracellular domain His-Flag fusion protein (murine) (UniProt Q9JHX3); experiment: SPR, Ab captured, 50 nM analyte
[6] = biological target: murine IL-21R extracellular domain His-Flag fusion protein (murine) (UniProt Q9JHX3); experiment: BIACORE: antibody captured on anti-human IgG; 50 nM murine IL-21R-H/F injected
[7] = biological target: human IL-21R extracellular domain His-Flag fusion protein (human) (UniProt Q9HBE5); experiment: BIACORE: antibody captured on anti-human IgG; 0-100 nM human IL-21R-H/F injected
[8] = biological target: murine IL-21R extracellular domain His-Flag fusion protein (murine) (UniProt Q9JHX3); experiment: BIACORE: antibody captured on anti-human IgG; 10-500 nM murine IL-21R-H/F injected
[9] = biological target: murine IL-21R extracellular domain His-Flag fusion protein (murine) (UniProt Q9JHX3); experiment: SPR, antibody immobilized, 100 nM receptor

Measured: binding

B1: AbL (antibody, IgG1, V domains shown)
VH: QVQLQESGPGLVKPSETLSLTCAVSGYSISSGYYWGWIRQPPGKGLEWIGSISHTGNTYYNPPLKSRVTISVDTSKNQFSLKLSSVTAADTAVYYCARFMGFGRPEYWGQGTLVTVSS
VL: SSELTQDPAVSVALGQTVRITCQGDSLRTYYASWYQQKPGQAPVLVIYGKHKRPSGIPDRFSGSSSGNTASLTITGAQAEDEADYYCVTRNRYGNPHVLFGGGTQLTVL
binds: [1] | [2] | [3] | [4] | [5]

B2: AbG (antibody, IgG1, V domains shown)
VH: B1 VH with F99G, M100G, F102I, G103S
VL: B1 VL with N91S, R92V, Y93K
binds: [1] | [2] | [3] | [4] | [5]

B3: AbB (antibody, IgG1, V domains shown)
VH: B1 VH with F99G, M100G, F102I, G103S
VL: B1 VL with T89S, N91A, R92V, Y93V
binds: [1] | [2] | [3] | [4] | [5]

B4: AbR (antibody, human IgG1, V domains shown)
VH: B1 VH
VL: B1 VL with N91S, R92V, Y93K
binds: [6] | [1] | [7] | [2] | [3] | [4] | [8] | [5]

B5: AbC (antibody, IgG1, V domains shown)
VH: B1 VH with F99G, M100G, F102I, G103S
VL: B1 VL with V88S, T89S, N91S, Y93H
binds: [1] | [2] | [3] | [4] | [5]

B6: AbO (antibody, human IgG1, V domains shown)
VH: B1 VH with F99G, M100G, F102I, G103S
VL: B1 VL with N91S, R92A, Y93K
binds: [6] | [1] | [7] | [2] | [3] | [4] | [8] | [5]

B7: AbE (antibody, IgG1, V domains shown)
VH: B1 VH with F99G, M100G, F102I, G103S
VL: B1 VL with V88M, T89A, N91S, Y93K
binds: [1] | [2] | [3] | [4] | [5]

B8: AbP (antibody, human IgG1, V domains shown)
VH: B1 VH with F99G, M100G, F102I, G103S
VL: B1 VL with T89S, N91S, R92A, Y93K
binds: [6] | [1] | [7] | [2] | [3] | [4] | [8] | [5]

B9: AbU (antibody, human IgG1, V domains shown)
VH: B1 VH with F99G, M100G, F102I, G103S
VL: B1 VL with V88T, N91S, R92N, Y93K
binds: [6] | [1] | [7] | [2] | [3] | [4] | [8] | [5]

B10: AbI (antibody, IgG1, V domains shown)
VH: B1 VH with F99G, M100G, F102I, G103S
VL: B1 VL with V88I, T89A, N91S, R92N, Y93K
binds: [1] | [2] | [3] | [4] | [5]

B11: AbA (antibody, V domains shown)
VH: B1 VH with F99G, M100G, F102I, G103S
VL: B1 VL with T89A, N91S, R92V, Y93V
binds: [1] | [2] | [3] | [4] | [5]

B12: AbQ (antibody, human IgG1, V domains shown)
VH: B1 VH
VL: B1 VL with T89A, N91S, R92V, Y93V
binds: [6] | [1] | [7] | [2] | [3] | [4] | [8] | [5]

B13: AbK (antibody, IgG1, V domains shown)
VH: B1 VH
VL: B1 VL with T89S, N91A, R92V, Y93V
binds: [1] | [2] | [3] | [4] | [5]

B14: AbH (antibody, IgG1, V domains shown)
VH: B1 VH with F99G, M100G, F102I, G103S
VL: B1 VL with T89A, N91A, R92V, Y93R
binds: [1] | [2] | [3] | [4] | [5]

B15: AbF (antibody, IgG1, V domains shown)
VH: B1 VH with F99G, M100G, F102I, G103S
VL: B1 VL with V88S, N91S, Y93K
binds: [1] | [2] | [3] | [4] | [5]

B16: AbD (antibody, IgG1, V domains shown)
VH: B1 VH with F99G, M100G, F102I, G103S
VL: B1 VL
binds: [1] | [2] | [3] | [4] | [5]

B17: parental 18A5 antibody (antibody, V domains shown)
VH: B1 VH with P14T, F99G, M100G, F102I, G103S, Q110K
VL: SSELTQDPPVSVALGQTVTLTCQGDSLRTYYASWYQQKSGQAPILLLYGKHKRPSGIPDRFSGSTSGDTASLTITGAQAEDEADYYCNSRDSSGNPHVLFGGGTQLTVL
binds: [9] | [1] | [7] | [4] | [8] | [5]

B18: AbJ (antibody, IgG1, V domains shown)
VH: B1 VH
VL: B1 VL with V88N, T89S, N91D, R92S, Y93S
binds: [1] | [2] | [3] | [4] | [5]
